Measurements reported in patent publication US11771685B2, “Compounds for the treatment of neurological or mitochondrial diseases” (MUSC FOUNDATION FOR RESEARCH DEVELOPMENT, priority 2018, dated 2023).
Some entries share one result that the patent states for a list of compounds.

Experiments:
Zebrafish larvae = assay: In vivo toxicology in zebrafish larvae; details: 7 dpf larvae, 5-20 μM, observed 1, 5 and 24 hr
Description: Zebrafish larvae, 7 days post-fertilization (dpf), were exposed to compounds at 20, 15, 10, and 5 μM, six larvae per compound. Animals were observed 1, 5, and 24 hr after dosing for overt toxicity (altered survival, morbidity, morphological deformity). Heart rate, behavior, and startle response were monitored at each time point.
Zebrafish (AB strain) were obtained from the Zebrafish International Resource Center (supported by P40 RR012546 from NIH—NCRR). Zebrafish were maintained and crossed according to standard methods (Westerfield, 2000). Fertilized eggs were collected and placed in E3 embryo medium and positioned in an incubator set at 28.5° C. with a 14/10-hr light/dark cycle (Kimmel et al., 1995). To determine the lethal dose of each compound, 96-well plates containing one zebrafish (7 days post-fertilization, dpf) per well in 100 μL of tank water were used. 100 μL of each compound (0.5-15 μM) was added to each well for 12 animals (one row) for a final volume of 200 μL. One row of larvae was used as dimethyl sulfoxide (DMSO)-only controls. […] All zebrafish studies were approved by the Medical University of South Carolina Institutional Animal Care and Use Committee (#180278) and performed in accordance with the guidelines.
Using a 96-well plate, 7 dpf zebrafish were placed one per well with 100 μL of tank water. […]

HT-22 = assay: In vitro HT-22 cytotoxicity

| SMILES | overt toxicity observation (Zebrafish larvae) | concentration at which some HT-22 cytotoxicity was observed (HT-22) [µM] |
| --- | --- | --- |
| CCCCOC1=CC(=O)c2ccccc2C1=O [Compound 26, 2-Butoxynaphthalene-1,4-dione] | not detected | > 10 |
| CC#CCOC1=CC(=O)c2ccccc2C1=O [Compound 28, 2-(But-2-yn-1-yloxy)naphthalene-1,4-dione] | not detected | > 10 |
